Measurements as given in publication PMC5128727, “Metalloprotease SPRTN/DVC1 Orchestrates Replication-Coupled DNA-Protein Crosslink Repair”.
These are yes or no findings as the source states them, for the method shown. In cells and extracts the contact can be indirect. Some entries that bind do so weakly or less than the wild type. Sequences can lack the tags named with a protein.

Protein sequences, listed by entry. Tags and fused reporters are not part of them.
UniProt P49736: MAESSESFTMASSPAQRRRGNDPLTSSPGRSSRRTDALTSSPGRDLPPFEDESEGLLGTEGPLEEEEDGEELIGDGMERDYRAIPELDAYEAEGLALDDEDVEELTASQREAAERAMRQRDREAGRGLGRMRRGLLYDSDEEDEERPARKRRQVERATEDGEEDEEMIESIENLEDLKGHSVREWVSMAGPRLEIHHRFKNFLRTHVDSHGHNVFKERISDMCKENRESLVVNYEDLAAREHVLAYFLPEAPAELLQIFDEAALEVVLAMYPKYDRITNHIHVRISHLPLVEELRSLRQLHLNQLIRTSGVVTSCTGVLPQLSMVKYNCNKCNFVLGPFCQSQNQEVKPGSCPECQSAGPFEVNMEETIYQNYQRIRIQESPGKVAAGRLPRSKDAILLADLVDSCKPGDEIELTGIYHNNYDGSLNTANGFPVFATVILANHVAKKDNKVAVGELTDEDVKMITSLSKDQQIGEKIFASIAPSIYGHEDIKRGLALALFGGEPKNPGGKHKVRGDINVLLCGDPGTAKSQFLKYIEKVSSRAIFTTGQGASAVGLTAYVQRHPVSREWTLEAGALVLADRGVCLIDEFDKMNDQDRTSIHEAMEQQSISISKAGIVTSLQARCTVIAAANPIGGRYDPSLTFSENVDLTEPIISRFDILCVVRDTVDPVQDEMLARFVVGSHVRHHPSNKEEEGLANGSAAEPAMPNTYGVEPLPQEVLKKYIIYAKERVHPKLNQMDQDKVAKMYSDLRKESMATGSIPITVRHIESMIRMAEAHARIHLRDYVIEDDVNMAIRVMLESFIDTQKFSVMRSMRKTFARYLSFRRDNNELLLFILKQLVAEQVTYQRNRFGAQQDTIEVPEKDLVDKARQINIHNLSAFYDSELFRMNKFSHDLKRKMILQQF
UniProt P11387: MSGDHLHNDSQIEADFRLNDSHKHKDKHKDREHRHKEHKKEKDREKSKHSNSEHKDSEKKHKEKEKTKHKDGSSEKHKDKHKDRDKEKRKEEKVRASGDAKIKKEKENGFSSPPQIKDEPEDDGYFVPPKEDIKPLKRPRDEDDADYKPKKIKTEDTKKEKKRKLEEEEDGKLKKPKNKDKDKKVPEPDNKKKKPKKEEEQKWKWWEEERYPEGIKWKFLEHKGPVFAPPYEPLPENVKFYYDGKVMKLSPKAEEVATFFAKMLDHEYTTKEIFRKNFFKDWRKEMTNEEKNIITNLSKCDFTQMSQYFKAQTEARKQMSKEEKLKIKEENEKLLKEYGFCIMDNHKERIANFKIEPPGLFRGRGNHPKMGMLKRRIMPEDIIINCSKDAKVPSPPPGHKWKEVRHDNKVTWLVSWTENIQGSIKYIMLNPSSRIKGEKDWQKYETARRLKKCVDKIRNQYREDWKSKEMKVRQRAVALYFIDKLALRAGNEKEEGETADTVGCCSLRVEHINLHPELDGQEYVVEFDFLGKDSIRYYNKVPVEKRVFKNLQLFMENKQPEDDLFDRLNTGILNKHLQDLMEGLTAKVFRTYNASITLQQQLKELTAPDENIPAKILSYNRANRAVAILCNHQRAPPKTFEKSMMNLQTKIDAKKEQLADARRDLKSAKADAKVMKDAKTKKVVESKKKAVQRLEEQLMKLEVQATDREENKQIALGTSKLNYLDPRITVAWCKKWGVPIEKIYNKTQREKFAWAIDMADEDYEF

Biological target: T1, SPRTN-Strep-Strep-His (SSH) (human) (UniProt Q9H040)
T1 sequence: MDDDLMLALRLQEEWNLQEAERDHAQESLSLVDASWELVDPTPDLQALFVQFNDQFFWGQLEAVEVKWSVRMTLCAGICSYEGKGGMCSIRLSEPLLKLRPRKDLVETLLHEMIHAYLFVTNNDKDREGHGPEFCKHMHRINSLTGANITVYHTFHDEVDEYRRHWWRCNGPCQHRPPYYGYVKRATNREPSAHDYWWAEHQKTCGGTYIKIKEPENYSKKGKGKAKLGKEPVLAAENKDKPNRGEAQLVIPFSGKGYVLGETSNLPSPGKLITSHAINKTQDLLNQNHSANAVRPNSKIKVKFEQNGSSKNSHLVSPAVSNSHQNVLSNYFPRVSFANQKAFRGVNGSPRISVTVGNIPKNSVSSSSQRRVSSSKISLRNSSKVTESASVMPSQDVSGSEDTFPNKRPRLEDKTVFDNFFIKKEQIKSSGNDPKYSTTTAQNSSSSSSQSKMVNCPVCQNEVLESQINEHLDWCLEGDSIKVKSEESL
Assay: co-IP; SPRTN-SSH isolated from total HEK293 cell extracts over Streptactin sepharose under high salt and detergent conditions; partners detected by blot

“minichromosome maintenance complex (MCM) subunit 2 (from UniProt P49736 1-904)” was tested, and the binding was “binds”.

With “Topoisomerase 1 (from UniProt P11387 1-765)” the binding was “binds”.

B1: minichromosome maintenance complex (MCM) subunit 6 (protein, UniProt Q14566 1-821)
chain: MDLAAAAEPGAGSQHLEVRDEVAEKCQKLFLDFLEEFQSSDGEIKYLQLAEELIRPERNTLVVSFVDLEQFNQQLSTTIQEEFYRVYPYLCRALKTFVKDRKEIPLAKDFYVAFQDLPTRHKIRELTSSRIGLLTRISGQVVRTHPVHPELVSGTFLCLDCQTVIRDVEQQFKYTQPNICRNPVCANRRRFLLDTNKSRFVDFQKVRIQETQAELPRGSIPRSLEVILRAEAVESAQAGDKCDFTGTLIVVPDVSKLSTPGARAETNSRVSGVDGYETEGIRGLRALGVRDLSYRLVFLACCVAPTNPRFGGKELRDEEQTAESIKNQMTVKEWEKVFEMSQDKNLYHNLCTSLFPTIHGNDEVKRGVLLMLFGGVPKTTGEGTSLRGDINVCIVGDPSTAKSQFLKHVEEFSPRAVYTSGKASSAAGLTAAVVRDEESHEFVIEAGALMLADNGVCCIDEFDKMDVRDQVAIHEAMEQQTISITKAGVKATLNARTSILAAANPISGHYDRSKSLKQNINLSAPIMSRFDLFFILVDECNEVTDYAIARRIVDLHSRIEESIDRVYSLDDIRRYLLFARQFKPKISKESEDFIVEQYKHLRQRDGSGVTKSSWRITVRQLESMIRLSEAMARMHCCDEVQPKHVKEAFRLLNKSIIRVETPDVNLDQEEEIQMEVDEGAGGINGHADSPAPVNGINGYNEDINQESAPKASLRLGFSEYCRISNLIVLHLRKVEEEEDESALKRSELVNWYLKEIESEIDSEEELINKKRIIEKVIHRLTHYDHVLIELTQAGLKGSTEGSESYEEDPYLVVNPNYLLED
For B1, the binding was “binds”.
